The target in the experiment is T1, GFP::CHDP-1 (xdIs48, Pchdp-1::GFP::CHDP-1) (C. elegans) (UniProt P91027).
T1 sequence: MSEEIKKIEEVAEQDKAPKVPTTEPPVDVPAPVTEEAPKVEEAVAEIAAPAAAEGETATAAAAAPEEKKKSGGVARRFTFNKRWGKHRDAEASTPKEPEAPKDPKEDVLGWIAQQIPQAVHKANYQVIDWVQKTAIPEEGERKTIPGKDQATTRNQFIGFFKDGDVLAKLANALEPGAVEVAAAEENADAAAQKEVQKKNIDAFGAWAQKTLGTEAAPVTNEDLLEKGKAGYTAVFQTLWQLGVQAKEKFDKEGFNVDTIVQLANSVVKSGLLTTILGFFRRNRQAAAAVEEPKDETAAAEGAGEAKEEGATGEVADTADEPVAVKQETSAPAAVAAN
Kind of experiment: affinity purification with mass spectrometry; worm lysates (Pchdp-1::GFP::CHDP-1, control Pchdp-1::GFP), GFP polyclonal antibody and protein A agarose, gel bands digested, TripleTOF 5600.

Results are given in words; binding and its absence hold for the method and conditions named. In cells and extracts the contact can be indirect. A yes stands for co-enrichment or nearness to the bait. Other partners may have been found. Where a sequence is shown, tags or fusion partners need not be part of it.

In the case of “CED-10 of worm lysate (from UniProt Q03206 1-191)”, the binding entry is listed as “binds”.
